The values that follow come from publication PMC10352294.

By UniProt entry, the sequences of proteins in these tests, tags left out.
UniProt Q921F2: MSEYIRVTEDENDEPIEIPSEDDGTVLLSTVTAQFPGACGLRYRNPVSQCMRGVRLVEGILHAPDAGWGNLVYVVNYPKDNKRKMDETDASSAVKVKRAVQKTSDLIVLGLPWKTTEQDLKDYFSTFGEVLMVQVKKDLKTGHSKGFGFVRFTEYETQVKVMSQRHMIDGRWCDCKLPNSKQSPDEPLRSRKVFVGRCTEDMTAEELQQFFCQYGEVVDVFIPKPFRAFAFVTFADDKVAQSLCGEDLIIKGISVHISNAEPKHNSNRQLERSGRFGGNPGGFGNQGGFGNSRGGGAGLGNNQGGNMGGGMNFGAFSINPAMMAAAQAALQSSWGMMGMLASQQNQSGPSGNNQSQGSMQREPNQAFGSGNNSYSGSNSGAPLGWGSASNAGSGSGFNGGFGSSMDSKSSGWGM
UniProt Q9QWV9: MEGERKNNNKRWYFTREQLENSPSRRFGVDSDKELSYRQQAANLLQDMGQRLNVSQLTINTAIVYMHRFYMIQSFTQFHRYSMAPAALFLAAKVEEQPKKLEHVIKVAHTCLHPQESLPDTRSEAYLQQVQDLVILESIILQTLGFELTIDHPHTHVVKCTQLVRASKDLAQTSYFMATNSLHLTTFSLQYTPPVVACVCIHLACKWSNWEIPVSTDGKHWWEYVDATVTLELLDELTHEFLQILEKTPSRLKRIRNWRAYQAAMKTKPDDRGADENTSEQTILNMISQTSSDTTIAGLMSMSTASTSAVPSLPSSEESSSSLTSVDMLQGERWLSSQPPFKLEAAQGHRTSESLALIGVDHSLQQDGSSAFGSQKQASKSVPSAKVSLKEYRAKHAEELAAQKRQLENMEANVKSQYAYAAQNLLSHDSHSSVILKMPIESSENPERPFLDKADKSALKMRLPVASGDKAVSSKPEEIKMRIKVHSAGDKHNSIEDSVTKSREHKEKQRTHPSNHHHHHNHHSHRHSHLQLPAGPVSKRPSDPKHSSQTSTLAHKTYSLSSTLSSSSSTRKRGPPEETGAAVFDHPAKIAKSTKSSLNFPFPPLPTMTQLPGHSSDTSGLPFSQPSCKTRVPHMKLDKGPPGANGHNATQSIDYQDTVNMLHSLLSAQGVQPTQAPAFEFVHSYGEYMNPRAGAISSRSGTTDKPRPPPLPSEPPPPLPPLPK

These are yes or no findings as the source states them, for the method shown. In cells and extracts the contact can be indirect. Some entries that bind do so weakly or less than the wild type.

Assay [1] has as its target Flag-TDP-43 (UniProt Q921F2). Description: co-IP; 293t cells transfected with Flag-TDP-43 and Myc-Ccnt1 vectors, lysate precipitated with Flag or Myc antibody, Protein A/G magnetic beads, Western blotting.
Assay [2] has as its target Cyclin T1 (mouse (endogenous in 2-cell embryos)) (UniProt Q9QWV9). Description: proximity ligation; Duolink PLA in fixed, permeabilised mouse early and late 2-cell embryos; mouse anti-TDP-43 with rabbit anti-Polr2a, anti-P-Ser2 or anti-Ccnt1; Tdp43 oKO embryos as control.
In assay [3] the target is Myc-Ccnt1 (UniProt Q9QWV9). As to the kind of experiment: co-IP; 293t cells transfected with Flag-TDP-43 and Myc-Ccnt1 vectors, lysate precipitated with Flag or Myc antibody, Protein A/G magnetic beads, Western blotting.

As to Myc-Ccnt1 (from UniProt Q9QWV9 1-724), the binding result in assay [1] is reported as “binds”.
Consider “TDP-43 (Transactive response DNA binding protein 43 kDa) (from UniProt Q921F2 1-414)”, for which the binding result in assay [2] is given as “binds”.
With Flag-TDP-43 (from UniProt Q921F2 1-414), in assay [3], the binding result is reported as “binds”.
